This is one part of the list. Many values rest on one well or one pass, so single values are uncertain.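 Imaging used 1,536-well plates; nuclei positive for cleaved PARP by antibody were divided by total DNA-stained nuclei to yield the apoptosis fraction. Doses for screening kept most cells viable, and cell lines differ markedly in resting and induced cleaved-PARP levels.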
Experiments:
Test in all cases: cleaved PARP positive nuclei fraction relative to DMSO control; melanoma cells; higher = more apoptosis
Details in all cases: library dose: low library concentration; 72 h
501Mel = tested on: 501Mel
A101D = tested on: A101D
A2058 = tested on: A2058
A375 = tested on: A375
C32 = tested on: C32
CBRC008 = tested on: CBRC008 (line from a melanoma biopsy)
CBRC013 = tested on: CBRC013 (line from a melanoma biopsy)
CBRC014 = tested on: CBRC014 (line from a melanoma biopsy)
CBRC016 = tested on: CBRC016 (line from a melanoma biopsy)
CBRC017 = tested on: CBRC017 (line from a melanoma biopsy)
COLO792 = tested on: COLO792
COLO800 = tested on: COLO800
COLO829 = tested on: COLO829
G361 = tested on: G361
IPC-298 = tested on: IPC-298
IST-MEL1 = tested on: IST-MEL1
LB2518-MEL = tested on: LB2518-MEL
LOXIMVI = tested on: LOXIMVI
MEL-HO = tested on: MEL-HO

Compound	cleaved PARP positive nuclei fraction (501Mel) [%]	cleaved PARP positive nuclei fraction (A101D) [%]	cleaved PARP positive nuclei fraction (A2058) [%]	cleaved PARP positive nuclei fraction (A375) [%]	cleaved PARP positive nuclei fraction (C32) [%]	cleaved PARP positive nuclei fraction (CBRC008) [%]	cleaved PARP positive nuclei fraction (CBRC013) [%]	cleaved PARP positive nuclei fraction (CBRC014) [%]	cleaved PARP positive nuclei fraction (CBRC016) [%]	cleaved PARP positive nuclei fraction (CBRC017) [%]	cleaved PARP positive nuclei fraction (COLO792) [%]	cleaved PARP positive nuclei fraction (COLO800) [%]	cleaved PARP positive nuclei fraction (COLO829) [%]	cleaved PARP positive nuclei fraction (G361) [%]	cleaved PARP positive nuclei fraction (IPC-298) [%]	cleaved PARP positive nuclei fraction (IST-MEL1) [%]	cleaved PARP positive nuclei fraction (LB2518-MEL) [%]	cleaved PARP positive nuclei fraction (LOXIMVI) [%]	cleaved PARP positive nuclei fraction (MEL-HO) [%]
C=CCNC1=C2C[C@@H](C)C[C@H](OC)[C@H](O)[C@@H](C)/C=C(\C)[C@H](OC(N)=O)[C@@H](OC)/C=C\C=C(/C)C(=O)NC(=CC1=O)C2=O [Tanespimycin] + OCCn1cc(-c2cnc3nnn(Cc4ccc5ncccc5c4)c3n2)cn1 [PF04217903] (first compound 0.002 µM, partner dose 1 µM)	92.8	139	133	155	153	133	128	99.7	257	129	179	226	93.4	60.9	98	147	185	118	74.9
CC(=O)c1c(C)c2cnc(Nc3ccc(N4CCNCC4)cn3)nc2n(C2CCCC2)c1=O [palbociclib] + Cc1ccc(NC(=O)c2cccc(N(C)C)c2)cc1NC(=O)c1ccc(O)cc1 [ZM336372] (first compound 0.04 µM, partner dose 2 µM)	132	119	52.7	272	133	263	118	105	137	72.3	126	61.3	190	55.6	77.6	95.5	138	112	62
Cn1nnc2c(C(N)=O)ncn2c1=O [temozolomide] + NCC(=O)Nc1ccc(-n2nc(C(F)(F)F)cc2-c2ccc3c(ccc4ccccc43)c2)cc1 [OSU03012] (first compound 2 µM, partner dose 1 µM)	485	80	81.5	1740	92.4	143	92	94	119	78.2	91.1	52.7	140	87.1	163	169	89.5	53	125
C=CCn1c(=O)c2cnc(Nc3ccc(N4CCN(C)CC4)cc3)nc2n1-c1cccc(C(C)(C)O)n1 + Cc1cc(N2CCOCC2)cc2[nH]c(-c3c(NC[C@@H](O)c4cccc(Cl)c4)cc[nH]c3=O)nc12 [BMS536924] (first compound 0.02 µM, partner dose 0.2 µM)	229	44	53.7	557	125	191	162	118	161	177	90	107	115	51.6	51.4	130	112	97.1	120
Clc1ccc(Nc2nnc(Cc3ccncc3)c3ccccc23)cc1 [vatalanib] + CN(NC(=O)CC(=O)NN(C)C(=S)c1ccccc1)C(=S)c1ccccc1 [STA4783] (first compound 2 µM, partner dose 0.006 µM)	159	132	114	88.5	75.6	125	104	109	79	115	136	218	99.8	52.8	45.9	63.9	129	439	74.1
C=CCNC1=C2C[C@@H](C)C[C@H](OC)[C@H](O)[C@@H](C)/C=C(\C)[C@H](OC(N)=O)[C@@H](OC)/C=C\C=C(/C)C(=O)NC(=CC1=O)C2=O [Tanespimycin] + Cc1cc(N2CCOCC2)cc2[nH]c(-c3c(NC[C@@H](O)c4cccc(Cl)c4)cc[nH]c3=O)nc12 [BMS536924] (first compound 0.002 µM, partner dose 0.2 µM)	138	254	97.8	125	284	242	137	89.3	103	101	141	104	157	63.1	93.8	102	183	32.5	62.8
CC1(C)NC(=O)N(c2ccc([N+](=O)[O-])c(C(F)(F)F)c2)C1=O [nilutamide] + CN(NC(=O)CC(=O)NN(C)C(=S)c1ccccc1)C(=S)c1ccccc1 [STA4783] (first compound 1 µM, partner dose 0.006 µM)	252	188	99.8	4410	180	1450	142	684	189	113	105	137	231	161	196	97.1	377	43.7	626
Cn1cncc1[C@@](N)(c1ccc(Cl)cc1)c1ccc2c(c1)c(-c1cccc(Cl)c1)cc(=O)n2C [tipifarnib] + NCC(=O)Nc1ccc(-n2nc(C(F)(F)F)cc2-c2ccc3c(ccc4ccccc43)c2)cc1 [OSU03012] (first compound 0.01 µM, partner dose 1 µM)	340	44.2	94.5	2900	59.2	131	137	115	115	111	132	80.2	80.6	3950	156	168	105	95.8	70.7
NC(=O)Nc1cc(-c2cccc(F)c2)sc1C(=O)N[C@H]1CCCNC1 + Cn1cncc1[C@@](N)(c1ccc(Cl)cc1)c1ccc2c(c1)c(-c1cccc(Cl)c1)cc(=O)n2C [tipifarnib] (first compound 0.02 µM, partner dose 0.01 µM)	52.4	179	74.2	626	169	171	88.8	110	234	99.1	102	98.8	125	123	84.3	122	95.2	22.7	72.1
CC(C)(C)c1cnc(CSc2cnc(NC(=O)C3CCNCC3)s2)o1 + COc1cc2c(Oc3ccc4[nH]c(C)cc4c3F)ncnc2cc1OCCCN1CCCC1 [cediranib] (first compound 0.01 µM, partner dose 0.4 µM)	82.5	82.3	66.5	88	89.9	57.3	138	93.2	96.1	83.9	84.1	60.2	113	74.7	82.7	94.7	69.2	551	70.9
C=CCn1c(=O)c2cnc(Nc3ccc(N4CCN(C)CC4)cc3)nc2n1-c1cccc(C(C)(C)O)n1 + CC(C)(C)c1cnc(CSc2cnc(NC(=O)C3CCNCC3)s2)o1 [SNS-032] (first compound 0.02 µM, partner dose 0.01 µM)	80.5	108	58.5	363	104	104	160	119	56.1	215	78.4	156	49.9	75.3	89.5	37.9	110	77.9	27.1
Cn1c(Nc2ccc(C(F)(F)F)cc2)nc2cc(Oc3ccnc(-c4ncc(C(F)(F)F)[nH]4)c3)ccc21 + C[C@@H]1CCN(C(=O)CC#N)C[C@@H]1N(C)c1ncnc2[nH]ccc12 [CP690550] (first compound 0.08 µM, partner dose 1 µM)	95.3	134	60.9	127	69.2	238	114	89	132	108	537	130	249	147	135	153	79.8	91.3	175
COCC[n+]1c2c(n(Cc3cnccn3)c1C)C(=O)c1ccccc1C2=O + O=C(CCCCCCC(=O)Nc1ccccc1)NO [vorinostat] (first compound 0.0004 µM, partner dose 0.08 µM)	168	169	22.7	20.9	36.3	1150	99.2	86.2	103	92.9	111	45.6	158	79.3	46.2	119	49.1	228	137
CC(=O)c1c(C)c2cnc(Nc3ccc(N4CCNCC4)cn3)nc2n(C2CCCC2)c1=O [palbociclib] + CN(NC(=O)CC(=O)NN(C)C(=S)c1ccccc1)C(=S)c1ccccc1 [STA4783] (first compound 0.04 µM, partner dose 0.006 µM)	680	104	305	9240	199	1620	117	568	326	494	150	307	50.3	110	54.7	63.6	154	157	70.5
Nc1cccc2c1CN(C1CCC(=O)NC1=O)C2=O (stereo not drawn) [lenalidomide] + COc1cc(Nc2ncc(F)c(Nc3ccc4c(n3)NC(=O)C(C)(C)O4)n2)cc(OC)c1OC [Tamatinib] (first compound 1 µM, partner dose 0.4 µM)	84.2	150	97.7	96.8	41.5	366	91.9	97.8	64.1	86.2	285	129	163	180	124	55.1	111	95.3	109
COc1cc(Nc2ncc(F)c(Nc3ccc4c(n3)NC(=O)C(C)(C)O4)n2)cc(OC)c1OC [Tamatinib] + C[C@@H]1CCN(C(=O)CC#N)C[C@@H]1N(C)c1ncnc2[nH]ccc12 [CP690550] (first compound 0.4 µM, partner dose 1 µM)	77.9	109	212	242	59.1	244	101	81.2	126	85.5	210	62.7	89.5	131	158	54.9	255	78.2	155
COCC[n+]1c2c(n(Cc3cnccn3)c1C)C(=O)c1ccccc1C2=O + O=C(O)c1ccc(-c2c[nH]c3ncc(-c4ccccc4)cc23)cc1C1CCCC1 [GSK650394] (first compound 0.0004 µM, partner dose 0.16 µM)	131	47.5	66.7	224	20.7	599	91.3	331	162	135	92	38.2	159	96.1	205	931	124	170	144

As entered above.
In cleaved PARP positive nuclei fraction (LB2518-MEL) [%], COc1cc(Nc2ncc(F)c(Nc3ccc4c(n3)NC(=O)C(C)(C)O4)n2)cc(OC)c1OC [Tamatinib] + C[C@@H]1CCN(C(=O)CC#N)C[C@@H]1N(C)c1ncnc2[nH]ccc12 [CP690550] (first compound 0.4 µM, partner dose 1 µM) shows 255
In cleaved PARP positive nuclei fraction (COLO829) [%], CC(=O)c1c(C)c2cnc(Nc3ccc(N4CCNCC4)cn3)nc2n(C2CCCC2)c1=O [palbociclib] + Cc1ccc(NC(=O)c2cccc(N(C)C)c2)cc1NC(=O)c1ccc(O)cc1 [ZM336372] (first compound 0.04 µM, partner dose 2 µM) shows 190
